Source: paper PMC7282668
No constants are given. Whether binding was seen depends on the method and setting. Binding seen in cells or lysates may run through a third protein. These calls come from enrichment with a bait or labelling near it, and not all partners need be listed. A no says only that the protein was not detected with the bait. For some assays here: Where a sequence is shown, tags or fusion partners need not be part of it.

The chains behind the UniProt entries cited, without tags or fusion partners. Where a name states a change or a piece, a line headed by the entry shows the natural chain unless it says otherwise.
UniProt F4KH55: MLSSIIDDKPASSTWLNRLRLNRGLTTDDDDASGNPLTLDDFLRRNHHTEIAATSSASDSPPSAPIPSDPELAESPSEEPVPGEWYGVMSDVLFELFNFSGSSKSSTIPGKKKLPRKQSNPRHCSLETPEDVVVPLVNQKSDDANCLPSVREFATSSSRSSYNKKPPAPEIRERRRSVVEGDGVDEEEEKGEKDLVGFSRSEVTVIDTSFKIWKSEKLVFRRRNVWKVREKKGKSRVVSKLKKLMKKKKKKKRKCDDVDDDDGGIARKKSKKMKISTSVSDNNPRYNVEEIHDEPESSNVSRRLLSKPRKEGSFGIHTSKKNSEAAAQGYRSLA
UniProt O22467: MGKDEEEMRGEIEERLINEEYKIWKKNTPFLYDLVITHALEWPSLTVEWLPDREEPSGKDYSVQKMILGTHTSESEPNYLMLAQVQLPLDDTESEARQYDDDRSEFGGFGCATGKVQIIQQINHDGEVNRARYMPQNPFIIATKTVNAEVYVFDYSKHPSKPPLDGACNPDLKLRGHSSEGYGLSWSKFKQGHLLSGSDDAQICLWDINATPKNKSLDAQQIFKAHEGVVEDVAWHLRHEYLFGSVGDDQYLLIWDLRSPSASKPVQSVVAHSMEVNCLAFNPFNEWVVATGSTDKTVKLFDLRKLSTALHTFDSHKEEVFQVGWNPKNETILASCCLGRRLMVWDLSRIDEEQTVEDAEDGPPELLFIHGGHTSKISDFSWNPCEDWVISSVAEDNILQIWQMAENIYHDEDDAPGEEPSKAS

T1: ALP1-GFP (pALP1::ALP1-GFP) (Arabidopsis thaliana) (UniProt Q94K49)
T1 sequence: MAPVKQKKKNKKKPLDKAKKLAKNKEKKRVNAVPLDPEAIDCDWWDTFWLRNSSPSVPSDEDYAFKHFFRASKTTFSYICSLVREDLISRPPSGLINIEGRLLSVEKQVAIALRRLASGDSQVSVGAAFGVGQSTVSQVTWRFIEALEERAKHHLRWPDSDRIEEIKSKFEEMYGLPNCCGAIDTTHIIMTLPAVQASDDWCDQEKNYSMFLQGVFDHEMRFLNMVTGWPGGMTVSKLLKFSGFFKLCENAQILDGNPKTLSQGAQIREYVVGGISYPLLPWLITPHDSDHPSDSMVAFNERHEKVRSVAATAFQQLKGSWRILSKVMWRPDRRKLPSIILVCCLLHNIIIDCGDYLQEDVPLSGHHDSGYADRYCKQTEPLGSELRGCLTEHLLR

B1: LHP1 (endogenous) (protein, UniProt Q946J8 1-445)
chain: MKGASGAVKKKPQVLNEAGEAETAVETVGESRKISGDGGFGSDDGGGGGGGGSGESILREIGDDRPTEDGDEEEEEDEDEDDGGDEEDEEGEGEGGQEERPKLDEGFYEIEAIRRKRVRKGKVQYLIKWRGWPETANTWEPLENLQSIADVIDAFEGSLKPGKPGRKRKRKYAGPHSQMKKKQRLTSTSHDATEKSDSSTSLNNSSLPDIPDPLDLSGSSLLNRDVEAKNAYVSNQVEANSGSVGMARQVRLIDNEKEYDPTLNELRGPVNNSNGAGCSQGGGIGSEGDNVRPNGLLKVYPKELDKNSRFIGAKRRKSGSVKRFKQDGSTSNNHTAPTDQNLTPDLTTLDSFGRIARMGNEYPGVMENCNLSQKTKIEELDITKILKPMSFTASVSDNVQEVLVTFLALRSDGKEALVDNRFLKAHNPHLLIEFYEQHLKYNRTP
B2: EMF1 (endogenous) (protein, UniProt Q9LYD9 1-1096)
chain: MGSSIKINSISIDLAGAANEIDMVKCDHFSMRGFVAETRERDLRKCWPFSEESVSLVDQQSYTLPTLSVPKFRWWHCMSCIKDIDAHGPKDCGLHSNSKAIGNSSVIESKSKFNSLTIIDHEKEKKTDIADNAIEEKVGVNCENDDQTATTFLKKARGRPMGASNVRSKSRKLVSPEQVGNNRSKEKLNKPSMDISSWKEKQNVDQAVTTFGSSEIAGVVEDTPPKATKNHKGIRGLMECDNGSSESINLAMSGLQRRKSRKVRLLSELLGNTKTSGGSNIRKEESALKKESVRGRKRKLLPENNYVSRILSTMGATSENASKSCDSDQGNSESTDSGFDRTPFKGKQRNRRFQVVDEFVPSLPCETSQEGIKEHDADPSKRSTPAHSLFTGNDSVPCPPGTQRTERKLSLPKKKTKKPVIDNGKSTVISFSNGIDGSQVNSHTGPSMNTVSQTRDLLNGKRVGGLFDNRLASDGYFRKYLSQVNDKPITSLHLQDNDYVRSRDAEPNCLRDFSSSSKSSSGGWLRTGVDIVDFRNNNHNTNRSSFSNLKLRYPPSSTEVADLSRVLQKDASGADRKGKTVMVQEHHGAPRSQSHDRKETTTEEQNNDDIPMEIVELMAKNQYERCLPDKEEDVSNKQPSQETAHKSKNALLIDLNETYDNGISLEDNNTSRPPKPCSSNARREEHFPMGRQQNSHDFFPISQPYVPSPFGIFPPTQENRASSIRFSGHNCQWLGNLPTVGNQNPSPSSFRVLRACDTCQSVPNQYREASHPIWPSSMIPPQSQYKPVSLNINQSTNPGTLSQASNNENTWNLNFVAANGKQKCGPNPEFSFGCKHAAGVSSSSSRPIDNFSSESSIPALHLLSLLDPRLRSTTPADQHGNTKFTKRHFPPANQSKEFIELQTGDSSKSAYSTKQIPFDLYSKRFTQEPSRKSFPITPPIGTSSLSFQNASWSPHHQEKKTKRKDTFAPVYNTHEKPVFASSNDQAKFQLLGASNSMMLPLKFHMTDKEKKQKRKAESCNNNASAGPVKNSSGPIVCSVNRNPADFTIPEPGNVYMLTGEHLKVRKRTTFKKKPAVCKQDAMKQTKKPVCPPTQNA
B3: FIE (endogenous) (protein, UniProt Q9LT47 1-369)
chain: MSKITLGNESIVGSLTPSNKKSYKVTNRIQEGKKPLYAVVFNFLDARFFDVFVTAGGNRITLYNCLGDGAISALQSYADEDKEESFYTVSWACGVNGNPYVAAGGVKGIIRVIDVNSETIHKSLVGHGDSVNEIRTQPLKPQLVITASKDESVRLWNVETGICILIFAGAGGHRYEVLSVDFHPSDIYRFASCGMDTTIKIWSMKEFWTYVEKSFTWTDDPSKFPTKFVQFPVFTASIHTNYVDCNRWFGDFILSKSVDNEILLWEPQLKENSPGEGASDVLLRYPVPMCDIWFIKFSCDLHLSSVAIGNQEGKVYVWDLKSCPPVLITKLSHNQSKSVIRQTAMSVDGSTILACCEDGTIWRWDVITK
B4: EMF2 (endogenous) (protein, UniProt Q8L6Y4 1-631)
chain: MPGIPLVSRETSSCSRSTEQMCHEDSRLRISEEEEIAAEESLAAYCKPVELYNIIQRRAIRNPLFLQRCLHYKIEAKHKRRIQMTVFLSGAIDAGVQTQKLFPLYILLARLVSPKPVAEYSAVYRFSRACILTGGLGVDGVSQAQANFLLPDMNRLALEAKSGSLAILFISFAGAQNSQFGIDSGKIHSGNIGGHCLWSKIPLQSLYASWQKSPNMDLGQRVDTVSLVEMQPCFIKLKSMSEEKCVSIQVPSNPLTSSSPQQVQVTISAEEVGSTEKSPYSSFSYNDISSSSLLQIIRLRTGNVVFNYRYYNNKLQKTEVTEDFSCPFCLVKCASFKGLRYHLPSTHDLLNFEFWVTEEFQAVNVSLKTETMISKVNEDDVDPKQQTFFFSSKKFRRRRQKSQVRSSRQGPHLGLGCEVLDKTDDAHSVRSEKSRIPPGKHYERIGGAESGQRVPPGTSPADVQSCGDPDYVQSIAGSTMLQFAKTRKISIERSDLRNRSLLQKRQFFHSHRAQPMALEQVLSDRDSEDEVDDDVADFEDRRMLDDFVDVTKDEKQMMHMWNSFVRKQRVLADGHIPWACEAFSRLHGPIMVRTPHLIWCWRVFMVKLWNHGLLDARTMNNCNTFLEQLQI
B5: ALP1 (endogenous) (protein, UniProt Q94K49 1-396)
chain: T1 sequence
B6: CLF (endogenous) (protein, UniProt P93831 1-902)
chain: MASEASPSSSATRSEPPKDSPAEERGPASKEVSEVIESLKKKLAADRCISIKKRIDENKKNLFAITQSFMRSSMERGGSCKDGSDLLVKRQRDSPGMKSGIDESNNNRYVEDGPASSGMVQGSSVPVKISLRPIKMPDIKRLSPYTTWVFLDRNQRMTEDQSVVGRRRIYYDQTGGEALICSDSEEEAIDDEEEKRDFLEPEDYIIRMTLEQLGLSDSVLAELASFLSRSTSEIKARHGVLMKEKEVSESGDNQAESSLLNKDMEGALDSFDNLFCRRCLVFDCRLHGCSQDLIFPAEKPAPWCPPVDENLTCGANCYKTLLKSGRFPGYGTIEGKTGTSSDGAGTKTTPTKFSSKLNGRKPKTFPSESASSNEKCALETSDSENGLQQDTNSDKVSSSPKVKGSGRRVGRKRNKNRVAERVPRKTQKRQKKTEASDSDSIASGSCSPSDAKHKDNEDATSSSQKHVKSGNSGKSRKNGTPAEVSNNSVKDDVPVCQSNEVASELDAPGSDESLRKEEFMGETVSRGRLATNKLWRPLEKSLFDKGVEIFGMNSCLIARNLLSGFKSCWEVFQYMTCSENKASFFGGDGLNPDGSSKFDINGNMVNNQVRRRSRFLRRRGKVRRLKYTWKSAAYHSIRKRITEKKDQPCRQFNPCNCKIACGKECPCLLNGTCCEKYCGCPKSCKNRFRGCHCAKSQCRSRQCPCFAADRECDPDVCRNCWVIGGDGSLGVPSQRGDNYECRNMKLLLKQQQRVLLGISDVSGWGAFLKNSVSKHEYLGEYTGELISHKEADKRGKIYDRENCSFLFNLNDQFVLDAYRKGDKLKFANHSPEPNCYAKVIMVAGDHRVGIFAKERILAGEELFYDYRYEPDRAPAWAKKPEAPGSKKDENVTPSVGRPKKLA
B7: SWN (endogenous) (protein, UniProt Q9ZSM8 1-856)
chain: MVTDDSNSSGRIKSHVDDDDDGEEEEDRLEGLENRLSELKRKIQGERVRSIKEKFEANRKKVDAHVSPFSSAASSRATAEDNGNSNMLSSRMRMPLCKLNGFSHGVGDRDYVPTKDVISASVKLPIAERIPPYTTWIFLDRNQRMAEDQSVVGRRQIYYEQHGGETLICSDSEEEPEPEEEKREFSEGEDSIIWLIGQEYGMGEEVQDALCQLLSVDASDILERYNELKLKDKQNTEEFSNSGFKLGISLEKGLGAALDSFDNLFCRRCLVFDCRLHGCSQPLISASEKQPYWSDYEGDRKPCSKHCYLQLKAVREVPETCSNFASKAEEKASEEECSKAVSSDVPHAAASGVSLQVEKTDIGIKNVDSSSGVEQEHGIRGKREVPILKDSNDLPNLSNKKQKTAASDTKMSFVNSVPSLDQALDSTKGDQGGTTDNKVNRDSEADAKEVGEPIPDNSVHDGGSSICQPHHGSGNGAIIIAEMSETSRPSTEWNPIEKDLYLKGVEIFGRNSCLIARNLLSGLKTCLDVSNYMRENEVSVFRRSSTPNLLLDDGRTDPGNDNDEVPPRTRLFRRKGKTRKLKYSTKSAGHPSVWKRIAGGKNQSCKQYTPCGCLSMCGKDCPCLTNETCCEKYCGCSKSCKNRFRGCHCAKSQCRSRQCPCFAAGRECDPDVCRNCWVSCGDGSLGEAPRRGEGQCGNMRLLLRQQQRILLGKSDVAGWGAFLKNSVSKNEYLGEYTGELISHHEADKRGKIYDRANSSFLFDLNDQYVLDAQRKGDKLKFANHSAKPNCYAKVMFVAGDHRVGIFANERIEASEELFYDYRYGPDQAPVWARKPEGSKKDDSAITHRRARKHQSH

Biological target: T1, ALP1-GFP (pALP1::ALP1-GFP) (Arabidopsis thaliana)
Experiment: affinity purification with mass spectrometry; IP of GFP-tagged bait from inflorescence extracts with GFP-trap agarose beads; 10mM Tris pH 7.5, 150 mM NaCl, 0.5% Igepal, 1% Triton; three independent experiments; 35S::GFP as control

binding	Molecule
binds	ALP2 (endogenous)
no binding	B1
no binding	B2

Biological target: GFP-ALP2 (35S::GFP-ALP2) (Arabidopsis thaliana) (UniProt F4KH55)
Experiment: as above

binding	Molecule
binds	MSI1 (endogenous) (from UniProt O22467 1-424)
no binding	B1
binds	B3
binds	B4
no binding	B2
binds	B5
binds	B6
binds	B7

Biological target: GS^rhino-ALP2 (35S::GS^rhino-ALP2) (Arabidopsis thaliana)
Experiment: affinity purification with mass spectrometry; two-step tandem affinity purification of GS^rhino-ALP2 from dark grown PSB-D suspension culture cells; non-transgenic cells as control; three replicates

binding	Molecule
no binding	B1
no binding	B2
binds	B5
